According to PubChem BioAssay AID330 (DTP/NCI, 2004):
The list does not hold the whole screen: it gathers tests that were run many times, whatever their T/C, doses with no T/C, and many T/C values between a quarter and a half above the control. Further doses and runs are listed elsewhere. T/C is the treated group as % of the vehicle group. Some entries give survivors of the animals treated and no T/C: the source files T/C as zero there, which appears to mark a toxic dose or a test without result, not a measured value. Some doses without a T/C left all or most animals alive at the check, yet need not have been tolerated: the source hardly ever lists a survival T/C far under the control, and the zero likely stands for such cases as well. Survivors were counted at the toxicity check, usually on the fifth day, unless a day is given; later deaths do not show. Schedule codes are those of the source, taken here to give the interval after Q, in days (D) or hours (H), and the number of doses after X. Some entries hold several experiments; the values are given in rising order. For survival time, this PubChem deposit counts one and a half times the control or more as active, and values a quarter to a half above the control carry no call in these data; other NCI protocols may use other cut-offs. Some T/C values carry the count of animals alive at the toxicity check (mostly the fifth day); without a count, all were alive then.

Tested on: P388 leukemia ip, CD2F1 mice, survival T/C
Test: NCI In Vivo Anticancer Drug Screen. Data for tumor model P388 Leukemia (intraperitoneal) in CD2F1 (CDF1) mice
Settings: T/C endpoint: median survival time, higher T/C = longer survival
[1] = dose: 25.0 mg/kg/injection, schedule: Q01DX009 (ip), vehicle: saline with Tween-80
[2] = dose: 50.0 mg/kg/injection, schedule: Q01DX009 (ip), vehicle: saline with Tween-80
[3] = dose: 400.0 mg/kg/injection, schedule: Q01DX001 (ip), vehicle: saline with Tween-80
[4] = dose: 100.0 mg/kg/injection, schedule: Q01DX005 (ip), vehicle: Klucel (hydroxypropylcellulose) (HPC)
[5] = dose: 200.0 mg/kg/injection, schedule: Q01DX005 (ip), vehicle: Klucel (hydroxypropylcellulose) (HPC)
[6] = dose: 12.5 mg/kg/injection, schedule: Q01DX009 (ip), vehicle: saline with Tween-80
[7] = dose: 100.0 mg/kg/injection, schedule: Q01DX009 (ip), vehicle: saline with Tween-80
[8] = dose: 200.0 mg/kg/injection, schedule: Q01DX009 (ip), vehicle: saline with Tween-80
[9] = dose: 240.0 mg/kg/injection, schedule: Q01DX005 (ip), vehicle: saline with Tween-80
[10] = dose: 100.0 mg/kg/injection, schedule: Q04DX003 (ip), vehicle: saline with Tween-80
[11] = dose: 200.0 mg/kg/injection, schedule: Q04DX003 (ip), vehicle: saline with Tween-80
[12] = dose: 400.0 mg/kg/injection, schedule: Q04DX003 (ip), vehicle: saline with Tween-80
[13] = dose: 120.0 mg/kg/injection, schedule: Q01DX005 (ip), vehicle: saline with Tween-80

## Cc1ccc(Cl)cc1NC(=O)N(C)CCOC(=O)Nc1cccc(Cl)c1
dose: 240.0 mg/kg/injection, schedule: Q01DX005 (ip), vehicle: Klucel + Tween-80
  survivor count: 6 of 6

## NN=C(c1ccc(Br)cc1)c1ccc(Br)cc1
dose: 200.0 mg/kg/injection, schedule: Q04DX002 (ip), vehicle: saline with Tween-80
  survivor count: 5 of 6
dose: 400.0 mg/kg/injection, schedule: Q04DX002 (ip), vehicle: saline with Tween-80
  survivor count: 0 of 6

## CCCCCCCCP(=O)(N1CC1C)N1CC1C (stereo unspecified)
[1]
  survivor count: 1 of 6
[2]
  survivor count: 0 of 6
dose: 100.0 mg/kg/injection, schedule: Q04DX003 (ip), vehicle: saline
  survivor count: 6 of 6
dose: 200.0 mg/kg/injection, schedule: Q04DX003 (ip), vehicle: saline
  survivor count: 0 of 6

## CCC1=C[C@H]2CN(CCc3c([nH]c4ccccc34)[C@@](C(=O)OC)(c3cc4c(cc3OC)N(C)[C@H]3C(C(=O)OC)=C[C@]5(CC)C=CCN6CC[C@]43[C@@H]65)C2)C1
dose: 16.0 mg/kg/injection, schedule: Q01DX001 (ip), vehicle: other
  T/C: 126 % of control
dose: 32.0 mg/kg/injection, schedule: Q01DX001 (ip), vehicle: distilled water + Tween-80
  T/C: 146 % of control
dose: 32.0 mg/kg/injection, schedule: Q01DX001 (ip), vehicle: other
  T/C: 131 and 133 % of control
dose: 64.0 mg/kg/injection, schedule: Q01DX001 (ip), vehicle: other
  T/C: 127 % of control
dose: 128.0 mg/kg/injection, schedule: Q01DX001 (ip), vehicle: distilled water + Tween-80
  survivor count: 6 of 6
dose: 512.0 mg/kg/injection, schedule: Q01DX001 (ip), vehicle: distilled water + Tween-80
  survivor count: 0 of 6

## CCCCC(CC)OC(=O)c1cccc(C(=O)O)c1 (stereo unspecified)
[3]
  survivor count: 1 of 6

## Cc1cccnc1N
dose: 50.0 mg/kg/injection, schedule: Q01DX009 (ip), vehicle: saline
  survivor count: 0 of 6
dose: 100.0 mg/kg/injection, schedule: Q01DX009 (ip), vehicle: saline
  survivor count: 0 of 6
dose: 200.0 mg/kg/injection, schedule: Q01DX009 (ip), vehicle: saline
  survivor count: 0 of 6

## Cc1c2ccncc2c(O)c2c3ccccc3n(C)c12
[4]
  survivor count: 3 of 6
[5]
  survivor count: 0 of 6

## O=S(=O)(CCl)OCCF
[6]
  survivor count: 0 of 6
[1]
  survivor count: 0 of 6
[2]
  survivor count: 0 of 6
[7]
  survivor count: 0 of 6
[8]
  survivor count: 0 of 6

## CCOC(=O)NC(C#N)=C(Cl)Cl
dose: 50.0 mg/kg/injection, schedule: Q01DX009 (ip), vehicle: Klucel (hydroxypropylcellulose) (HPC)
  survivor count: 4 of 6

## O=C(O)c1ccc(NC(=S)NC(=O)c2cccc(Br)c2)cc1
[9]
  survivor count: 5 of 6

## O=C(Nc1cccc2ccccc12)N1c2ccccc2SC12CCCC2
[6]
  survivor count: 6 of 6
[1]
  survivor count: 6 of 6

## Cc1cc[n+](C)c(Cc2ccccc2)c1C
dose: 50.0 mg/kg/injection, schedule: Q01DX005 (ip), vehicle: Klucel (hydroxypropylcellulose) (HPC)
  survivor count: 3 of 5
[4]
  survivor count: 0 of 5
[5]
  survivor count: 0 of 5

## CCCCOCN(CCCc1ccccc1)COCCCC
[7]
  T/C: 127 % of control
[8]
  T/C: 139 % of control

## CC1=C(C)C(N(C)C)CS(=O)(=O)O1 (stereo unspecified)
[5]
  survivor count: 1 of 6

## COc1ccc2c(c1)[C@@]13CCCCC1[C@@H](C2)N(CC1CC1)CC3 (stereo partly specified)
dose: 400.0 mg/kg/injection, schedule: Q01DX001 (ip), vehicle: Klucel (hydroxypropylcellulose) (HPC)
  survivor count: 3 of 6

## COC(=O)c1c([As](C)C)n[n]([Sn]([CH3])([CH3])[CH3])c1C(=O)OC
dose: 25.0 mg/kg/injection, schedule: Q04DX003 (ip), vehicle: saline
  survivor count: 0 of 6
[10]
  survivor count: 0 of 6
[11]
  survivor count: 0 of 6
[12]
  survivor count: 0 of 6

## O=[N+]([O-])c1cnc2n(O)cccc1-2
[3]
  survivor count: 3 of 6

## CN(CCN1C(=O)c2cccc3cccc(c23)C1=O)CCN1C(=O)c2cccc3cccc(c23)C1=O
[13]
  survivor count: 6 of 6

## O=C1CCC(=O)N1CO
dose: 150.0 mg/kg/injection, schedule: Q01DX009 (ip), vehicle: saline with Tween-80
  T/C: 142 % of control
dose: 300.0 mg/kg/injection, schedule: Q01DX009 (ip), vehicle: saline with Tween-80
  T/C: 145 % of control

## CCCCCCCCCCCCCCCC(=O)N(C(C)CCCN(CC)CC)C(C)CCCN(CC)CC (stereo unspecified)
dose: 25.0 mg/kg/injection, schedule: Q01DX009 (ip), vehicle: water
  survivor count: 6 of 6

## Nc1nc(-c2ccccc2N=NN2CCCCC2)nc2ccccc12
dose: 200.0 mg/kg/injection, schedule: Q01DX009 (ip), vehicle: Klucel (hydroxypropylcellulose) (HPC)
  T/C: 127 and 137 % of control
dose: 400.0 mg/kg/injection, schedule: Q01DX009 (ip), vehicle: Klucel (hydroxypropylcellulose) (HPC)
  T/C: 126 % of control [5 of 6 alive]

## Cn1c(=O)[nH]c(=O)c2nc(-c3ccccc3)cnc21
dose: 200.0 mg/kg/injection, schedule: Q04DX002 (ip), vehicle: Klucel (hydroxypropylcellulose) (HPC)
  survivor count: 6 of 6

## O=C(CC(Br)C(=O)c1ccccc1)c1ccccc1 (stereo unspecified)
[10]
  T/C: 136 % of control
[11]
  T/C: 136 % of control
[12]
  T/C: 136 % of control

## O=[N+]([O-])c1cccc2c(Nc3ccc(S(=O)(=O)Nc4nccs4)cc3)c3ccccc3nc12
[13]
  survivor count: 6 of 6
[9]
  survivor count: 6 of 6

## C1=CCOCOC1
dose: 200.0 mg/kg/injection, schedule: Q01DX009 (ip), vehicle: saline with Tween-80, evaluated on day 20
  T/C: 136 % of control [5 of 6 alive]
dose: 200.0 mg/kg/injection, schedule: Q01DX009 (ip), vehicle: saline with Tween-80, evaluated on day 30
  T/C: 133 % of control
dose: 400.0 mg/kg/injection, schedule: Q01DX009 (ip), vehicle: saline with Tween-80
  survivor count: 0 of 6 and 1 of 6

## COc1cc(OC)c(NC(=O)Nc2cc(Cl)ccc2Cl)cc1Cl
[8]
  survivor count: 6 of 6

## Cc1c2oc3c(C)ccc(C(=O)NC4C(=O)NC(C(C)C)C(=O)N5CCCC5C(=O)N(C)CC(=O)N(C)C(C(C)C)C(=O)OC4C)c3nc-2c(C(=O)NC2C(=O)NC(C(C)C)C(=O)N3CC(O)CC3C(=O)N(C)CC(=O)N(C)C(C(C)C)C(=O)OC2C)c(N)c1=O (stereo unspecified)
dose: 0.1 mg/kg/injection, schedule: Q01DX009 (ip), vehicle: water
  T/C: 133 % of control
dose: 0.4 mg/kg/injection, schedule: Q01DX009 (ip), vehicle: Klucel (hydroxypropylcellulose) (HPC)
  survivor count: 6 of 6
dose: 0.8 mg/kg/injection, schedule: Q01DX009 (ip), vehicle: Klucel (hydroxypropylcellulose) (HPC)
  survivor count: 4 of 6
dose: 0.8 mg/kg/injection, schedule: Q01DX009 (ip), vehicle: water
  survivor count: 6 of 6
dose: 1.6 mg/kg/injection, schedule: Q01DX009 (ip), vehicle: Klucel (hydroxypropylcellulose) (HPC)
  survivor count: 0 of 6
dose: 1.6 mg/kg/injection, schedule: Q01DX009 (ip), vehicle: water
  survivor count: 5 of 6

## O=C1CC=C2C3CC4N(CCC45c4cc(O)c(O)cc4N1C25)C/C3=C\CBr (stereo unspecified)
dose: 60.0 mg/kg/injection, schedule: Q01DX005 (ip), vehicle: saline with Tween-80
  survivor count: 3 of 6
[13]
  survivor count: 4 of 6
[9]
  survivor count: 1 of 6

## CCCSCCNC(=O)C1(O)C(O)C2(CC)C=CCN3CCC4(c5cc(C6(OC(C)=O)CC7C=C(CC)CN(CCc8c6[nH]c6ccccc86)C7)c(OC)cc5N(C)C14)C32 (stereo unspecified)
dose: 1.0 mg/kg/injection, schedule: Q01DX001 (ip), vehicle: water
  T/C: 130 % of control
dose: 2.0 mg/kg/injection, schedule: Q01DX001 (ip), vehicle: water
  T/C: 133 % of control
dose: 4.0 mg/kg/injection, schedule: Q01DX001 (ip), vehicle: water
  T/C: 134 % of control
dose: 8.0 mg/kg/injection, schedule: Q01DX001 (ip), vehicle: water
  T/C: 139 % of control
dose: 32.0 mg/kg/injection, schedule: Q01DX001 (ip), vehicle: water
  survivor count: 2 of 6

## CSc1nnc(CCC(=O)Nc2ccc(Cl)cc2Cl)o1
[9]
  survivor count: 3 of 6
